Test results reported in patent US20250283871A1, “COMPOSITIONS AND METHODS FOR MODULATING THE INTERACTION BETWEEN SS18-SSX FUSION ONCOPROTEIN AND NUCLEOSOMES” (Dana-Farber Cancer Institute, Inc., priority 2020, published 2025).

B1: ARVCF (protein, UniProt O00192 1-962, looked up)
Splicing regulator ARVCF: MEDCNVHSAASILASVKEQEARFERLTRALEQERRHVALQLERAQQPGMVSGGMGSGQPLPMAWQQLVLQEQSPGSQASLATMPEAPDVLEETVTVEEDPGTPTSHVSIVTSEDGTTRRTETKVTKTVKTVTTRTVRQVPVGPDGLPLLDGGPPLGPFADGALDRHFLLRGGGPVATLSRAYLSSGGGFPEGPEPRDSPSYGSLSRGLGMRPPRAGPLGPGPGDGCFTLPGHREAFPVGPEPGPPGGRSLPERFQAEPYGLEDDTRSLAADDEGGPELEPDYGTATRRRPECGRGLHTRAYEDTADDGGELADERPAFPMVTAPLAQPERGSMGSLDRLVRRSPSVDSARKEPRWRDPELPEVLAMLRHPVDPVKANAAAYLQHLCFENEGVKRRVRQLRGLPLLVALLDHPRAEVRRRACGALRNLSYGRDTDNKAAIRDCGGVPALVRLLRAARDNEVRELVTGTLWNLSSYEPLKMVIIDHGLQTLTHEVIVPHSGWEREPNEDSKPRDAEWTTVFKNTSGCLRNVSSDGAEARRRLRECEGLVDALLHALQSAVGRKDTDNKSVENCVCIMRNLSYHVHKEVPGADRYQEAEPGPLGSAVGSQRRRRDDASCFGGKKAKEEWFHQGKKDGEMDRNFDTLDLPKRTEAAKGFELLYQPEVVRLYLSLLTESRNFNTLEAAAGALQNLSAGNWMWATYIRATVRKERGLPVLVELLQSETDKVVRAVAIALRNLSLDRRNKDLIGSYAMAELVRNVRNAQAPPRPGACLEEDTVVAVLNTIHEIVSDSLDNARSLLQARGVPALVALVASSQSVREAKAASHVLQTVWSYKELRGTLQKDGWTKARFQSAAATAKGPKGALSPGGFDDSTLPLVDKSLEGEKTGSRDVIPMDALGPDGYSTVDRRERRPRGASSAGEASEKEPLKLDPSRKAPPPGPSRPAVRLVDAVGDAKPQPVDSWV
B2: TMED9 (protein, UniProt Q9BVK6 38-235, looked up)
Transmembrane emp24 …: LYFHIGETEKKCFIEEIPDETMVIGNYRTQLYDKQREEYQPATPGLGMFVEVKDPEDKVILARQYGSEGRFTFTSHTPGEHQICLHSNSTKFSLFAGGMLRVHLDIQVGEHANDYAEIAAKDKLSELQLRVRQLVEQVEQIQKEQNYQRWREERFRQTSESTNQRVLWWSILQTLILVAIGVWQMRHLKSFFEAKKLV
B3: TMTC3 (protein, UniProt Q6ZXV5 1-915, looked up)
Protein …: MANINLKEITLIVGVVTACYWNSLFCGFVFDDVSAILDNKDLHPSTPLKTLFQNDFWGTPMSEERSHKSYRPLTVLTFRLNYLLSELKPMSYHLLNMIFHAVVSVIFLKVCKLFLDNKSSVIASLLFAVHPIHTEAVTGVVGRAELLSSIFFLAAFLSYTRSKGPDNSIIWTPIALTVFLVAVATLCKEQGITVVGICCVYEVFIAQGYTLPLLCTTAGQFLRGKGSIPFSMLQTLVKLIVLMFSTLLLVVIRVQVIQSQLPVFTRFDNPAAVSPTPTRQLTFNYLLPVNAWLLLNPSELCCDWTMGTIPLIESLLDIRNLATFTFFCFLGMLGVFSIRYSGDSSKTVLMALCLMALPFIPASNLFFPVGFVVAERVLYVPSMGFCILVAHGWQKISTKSVFKKLSWICLSMVILTHSLKTFHRNWDWESEYTLFMSALKVNKNNAKLWNNVGHALENEKNFERALKYFLQATHVQPDDIGAHMNVGRTYKNLNRTKEAEESYMMAKSLMPQIIPGKKYAARIAPNHLNVYINLANLIRANESRLEEADQLYRQAISMRPDFKQAYISRGELLLKMNKPLKAKEAYLKALELDRNNADLWYNLAIVHIELKEPNEALKKNFNRALELNPKHKLALFNSAIVMQESGEVKLRPEARKRLLSYINEEPLDANGYFNLGMLAMDDKKDNEAEIWMKKAIKLQADFRSALFNLALLYSQTAKELKALPILEELLRYYPDHIKGLILKGDILMNQKKDILGAKKCFERILEMDPSNVQGKHNLCVVYFEEKDLLKAERCLLETLALAPHEEYIQRHLNIVRDKISSSSFIEPIFPTSKISSVEGKKIPTESVKEIRGESRQTQIVKTSDNKSQSKSNKQLGKNGDEETPHKTTKDIKEIEKKRVAALKRLEEIERILNGE
B4: TM7SF2 (protein, UniProt O76062 1-418, looked up)
Delta(14)-sterol reductase …: MAPTQGPRAPLEFGGPLGAAALLLLLPATMFHLLLAARSGPARLLGPPASLPGLEVLWSPRALLLWLAWLGLQAALYLLPARKVAEGQELKDKSRLRYPINGFQALVLTALLVGLGMSAGLPLGALPEMLLPLAFVATLTAFIFSLFLYMKAQVAPVSALAPGGNSGNPIYDFFLGRELNPRICFFDFKYFCELRPGLIGWVLINLALLMKEAELRGSPSLAMWLVNGFQLLYVGDALWHEEAVLTTMDITHDGFGFMLAFGDMAWVPFTYSLQAQFLLHHPQPLGLPMASVICLINATGYYIFRGANSQKNTFRKNPSDPRVAGLETISTATGRKLLVSGWWGMVRHPNYLGDLIMALAWSLPCGVSHLLPYFYLLYFTALLVHREARDERQCLQKYGLAWQEYCRRVPYRIMPYIY
B5: SAMM50 (protein, UniProt Q9Y512 1-469, looked up)
Sorting and assembly …: MGTVHARSLEPLPSSGPDFGGLGEEAEFVEVEPEAKQEILENKDVVVQHVHFDGLGRTKDDIIICEIGDVFKAKNLIEVMRKSHEAREKLLRLGIFRQVDVLIDTCQGDDALPNGLDVTFEVTELRRLTGSYNTMVGNNEGSMVLGLKLPNLLGRAEKVTFQFSYGTKETSYGLSFFKPRPGNFERNFSVNLYKVTGQFPWSSLRETDRGMSAEYSFPIWKTSHTVKWEGVWRELGCLSRTASFAVRKESGHSLKSSLSHAMVIDSRNSSILPRRGALLKVNQELAGYTGGDVSFIKEDFELQLNKQLIFDSVFSASFWGGMLVPIGDKPSSIADRFYLGGPTSIRGFSMHSIGPQSEGDYLGGEAYWAGGLHLYTPLPFRPGQGGFGELFRTHFFLNAGNLCNLNYGEGPKAHIRKLAECIRWSYGAGIVLRLGNIARLELNYCVPMGVQTGDRICDGVQFGAGIRFL
B6: HLTF (protein, UniProt Q14527 1-1009, looked up)
Helicase-like transcription …: MSWMFKRDPVWKYLQTVQYGVHGNFPRLSYPTFFPRFEFQDVIPPDDFLTSDEEVDSVLFGSLRGHVVGLRYYTGVVNNNEMVALQRDPNNPYDKNAIKVNNVNGNQVGHLKKELAGALAYIMDNKLAQIEGVVPFGANNAFTMPLHMTFWGKEENRKAVSDQLKKHGFKLGPAPKTLGFNLESGWGSGRAGPSYSMPVHAAVQMTTEQLKTEFDKLFEDLKEDDKTHEMEPAEAIETPLLPHQKQALAWMVSRENSKELPPFWEQRNDLYYNTITNFSEKDRPENVHGGILADDMGLGKTLTAIAVILTNFHDGRPLPIERVKKNLLKKEYNVNDDSMKLGGNNTSEKADGLSKDASRCSEQPSISDIKEKSKFRMSELSSSRPKRRKTAVQYIESSDSEEIETSELPQKMKGKLKNVQSETKGRAKAGSSKVIEDVAFACALTSSVPTTKKKMLKKGACAVEGSKKTDVEERPRTTLIICPLSVLSNWIDQFGQHIKSDVHLNFYVYYGPDRIREPALLSKQDIVLTTYNILTHDYGTKGDSPLHSIRWLRVILDEGHAIRNPNAQQTKAVLDLESERRWVLTGTPIQNSLKDLWSLLSFLKLKPFIDREWWHRTIQRPVTMGDEGGLRRLQSLIKNITLRRTKTSKIKGKPVLELPERKVFIQHITLSDEERKIYQSVKNEGRATIGRYFNEGTVLAHYADVLGLLLRLRQICCHTYLLTNAVSSNGPSGNDTPEELRKKLIRKMKLILSSGSDEECAICLDSLTVPVITHCAHVFCKPCICQVIQNEQPHAKCPLCRNDIHEDNLLECPPEELARDSEKKSDMEWTSSSKINALMHALTDLRKKNPNIKSLVVSQFTTFLSLIEIPLKASGFVFTRLDGSMAQKKRVESIQCFQNTEAGSPTIMLLSLKAGGVGLNLSAASRVFLMDPAWNPAAEDQCFDRCHRLGQKQEVIITKFIVKDSVEENMLKIQNKKRELAAGAFGTKKPNADEMKQAKINEIRTLIDL

What follows are molecules tested on BAF complex subunits and histone proteins (assay: Mass spectrometry proteomics of purified HA-SS18 WT and HA-SS18-SSX1 complexes (Tables 5A-5E)). Conditions: HA-SS18SSX1_NE_peptides: protein co-purified with HA-SS18-SSX1 BAF complexes from soluble nuclear extract (NE), HEK-293T cells.
Parameters: species or system human

Total (peptides), 2:
B1
B2
B3
B4
B5
B6

Unique (peptides), 2:
B1
B2
B3
B4
B5
B6

Same assay, conditions: HA-SS18WT_NE_peptides: HA-SS18 WT complexes purified from nuclear extract (NE), HEK-293T; label = protein identified (Gene Symbol)

Total (peptides), 4:
B5

Unique (peptides), 4:
B5
